This is one part of the list.

Chains of the proteins cited; added tags and fusions are not shown. Lines headed by an entry give the natural chain unless they say otherwise; changes in a name come on top.
UniProt Q13126: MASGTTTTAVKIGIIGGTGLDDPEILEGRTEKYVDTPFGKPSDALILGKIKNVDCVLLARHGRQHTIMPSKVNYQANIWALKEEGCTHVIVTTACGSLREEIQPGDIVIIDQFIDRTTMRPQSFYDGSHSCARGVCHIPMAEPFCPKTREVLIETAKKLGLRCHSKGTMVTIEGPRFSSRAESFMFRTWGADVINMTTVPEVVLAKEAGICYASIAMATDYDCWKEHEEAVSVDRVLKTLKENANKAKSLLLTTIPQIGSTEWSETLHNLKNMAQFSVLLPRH
UniProt Q2M296: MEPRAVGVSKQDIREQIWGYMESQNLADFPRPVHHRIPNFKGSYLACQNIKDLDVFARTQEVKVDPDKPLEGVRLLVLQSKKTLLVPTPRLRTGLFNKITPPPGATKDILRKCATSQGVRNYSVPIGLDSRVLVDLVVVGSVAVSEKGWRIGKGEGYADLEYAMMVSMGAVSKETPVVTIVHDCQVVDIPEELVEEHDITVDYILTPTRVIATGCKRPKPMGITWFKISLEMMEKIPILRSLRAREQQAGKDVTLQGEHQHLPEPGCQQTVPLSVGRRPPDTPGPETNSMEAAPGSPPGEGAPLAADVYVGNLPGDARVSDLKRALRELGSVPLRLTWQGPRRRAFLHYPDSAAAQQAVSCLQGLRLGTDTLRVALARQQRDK
UniProt P34949: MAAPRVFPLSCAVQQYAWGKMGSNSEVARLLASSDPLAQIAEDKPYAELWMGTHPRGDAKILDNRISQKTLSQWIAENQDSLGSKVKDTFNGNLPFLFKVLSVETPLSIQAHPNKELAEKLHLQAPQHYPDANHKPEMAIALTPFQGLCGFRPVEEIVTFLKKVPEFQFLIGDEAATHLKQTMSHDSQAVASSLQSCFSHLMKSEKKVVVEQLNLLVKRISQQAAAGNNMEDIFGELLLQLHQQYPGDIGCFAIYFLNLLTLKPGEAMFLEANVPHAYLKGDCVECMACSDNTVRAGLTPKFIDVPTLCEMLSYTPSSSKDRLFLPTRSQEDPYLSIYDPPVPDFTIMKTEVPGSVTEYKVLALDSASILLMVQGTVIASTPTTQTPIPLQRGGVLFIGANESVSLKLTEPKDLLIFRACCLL
UniProt Q96HR3: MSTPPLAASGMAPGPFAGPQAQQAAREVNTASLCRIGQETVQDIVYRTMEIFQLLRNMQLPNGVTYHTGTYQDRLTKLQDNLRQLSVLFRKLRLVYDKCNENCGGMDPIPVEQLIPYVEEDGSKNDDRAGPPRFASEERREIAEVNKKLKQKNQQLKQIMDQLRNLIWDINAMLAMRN
UniProt Q9Y2Z2: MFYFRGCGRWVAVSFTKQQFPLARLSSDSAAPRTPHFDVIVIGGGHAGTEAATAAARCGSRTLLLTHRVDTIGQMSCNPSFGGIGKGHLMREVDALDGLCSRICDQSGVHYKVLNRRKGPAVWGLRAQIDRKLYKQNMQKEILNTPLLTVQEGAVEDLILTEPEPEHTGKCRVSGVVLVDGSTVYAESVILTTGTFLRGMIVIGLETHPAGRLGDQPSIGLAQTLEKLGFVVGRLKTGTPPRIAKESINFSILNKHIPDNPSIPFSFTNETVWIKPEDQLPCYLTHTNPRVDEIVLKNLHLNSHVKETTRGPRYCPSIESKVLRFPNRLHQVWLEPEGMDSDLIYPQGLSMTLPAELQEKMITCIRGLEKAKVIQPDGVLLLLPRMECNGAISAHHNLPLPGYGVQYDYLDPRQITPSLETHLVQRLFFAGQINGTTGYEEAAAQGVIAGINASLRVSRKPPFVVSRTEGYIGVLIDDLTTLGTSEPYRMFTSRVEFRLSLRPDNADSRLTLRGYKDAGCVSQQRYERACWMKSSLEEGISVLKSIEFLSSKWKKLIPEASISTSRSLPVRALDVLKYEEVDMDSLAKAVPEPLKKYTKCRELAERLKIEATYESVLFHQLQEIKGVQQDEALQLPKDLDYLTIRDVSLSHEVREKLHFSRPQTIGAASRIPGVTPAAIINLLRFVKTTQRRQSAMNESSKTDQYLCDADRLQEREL
UniProt Q10469: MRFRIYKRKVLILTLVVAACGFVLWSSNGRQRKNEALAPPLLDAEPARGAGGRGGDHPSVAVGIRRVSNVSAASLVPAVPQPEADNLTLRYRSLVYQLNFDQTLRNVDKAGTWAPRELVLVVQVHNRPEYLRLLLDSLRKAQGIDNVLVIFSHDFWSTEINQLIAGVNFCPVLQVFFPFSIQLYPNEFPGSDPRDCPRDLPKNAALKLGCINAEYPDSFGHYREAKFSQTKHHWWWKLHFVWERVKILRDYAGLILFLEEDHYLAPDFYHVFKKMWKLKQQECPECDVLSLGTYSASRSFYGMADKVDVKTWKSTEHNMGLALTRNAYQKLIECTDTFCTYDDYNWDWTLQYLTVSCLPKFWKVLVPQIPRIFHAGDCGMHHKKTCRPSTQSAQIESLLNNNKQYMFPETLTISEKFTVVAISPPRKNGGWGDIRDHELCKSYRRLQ

Compound in the test: COc1ccc(Cn2ccc3cc(C)c(C(=O)NO)cc32)cc1
In words: dose-dependent thermal stabilisation call (2D-TPP, DLPTP, 10% FDR) (binary (1 = stabilised)); higher = stabilised by the compound. As to conditions: system: HL-60 intact cells; concentration range 0.04-10 µM. As to the method: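 2D thermal proteome profiling in intact HL-60 cells treated with BRD-3811 (0, 0.04, 0.29, 2, 10 uM) for 90 min at 37 C, then heated 3 min at one of 12 temperatures (42-63.9 C). Soluble protein was quantified by TMT10 MS. The value is the DLPTP call of the paper: dose-dependent thermal stabilisation over all temperatures at 10% FDR (F-test of a dose-response against a flat model); one experiment, one call per tested protein.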
With MTAP (UniProt Q13126), the “dose-dependent thermal stabilisation call” value was inactive: 0. For MTHFSD (UniProt Q2M296), the “dose-dependent thermal stabilisation call” value was inactive: 0. On to MRPL45 (UniProt Q9BRJ2), for which the “dose-dependent thermal stabilisation call” value was inactive: 0. On to MPI (UniProt P34949), for which the “dose-dependent thermal stabilisation call” value was inactive: 0.

As for MED30 (UniProt Q96HR3), the “dose-dependent thermal stabilisation call” value is inactive: 0. Consider MTO1 (UniProt Q9Y2Z2), for which the “dose-dependent thermal stabilisation call” value was inactive: 0. Turning to MRPL21 (UniProt Q7Z2W9), the “dose-dependent thermal stabilisation call” value is inactive: 0.

With MGAT2 (UniProt Q10469), the “dose-dependent thermal stabilisation call” value was inactive: 0.

On to MRPL27 (UniProt Q9P0M9), for which the “dose-dependent thermal stabilisation call” value was inactive: 0.

Source of the values: the supplement of paper PMC7666118.
